{
  "source": "patent US20080294071A1",
  "about": "“Assay Method” (priority 2004, published 2008)",
  "test_system": "rats",
  "test": "Locomotor activity test",
  "format": "in vivo, Male Sprague Dawley rats",
  "details": "30 min post dose",
  "method": "Male Sprague Dawley rats 200-300 g (Charles River, Margate, U.K.) were housed in group of five per cage under a 12 h light/dark cycle with food and water available ad libitum. Each experiment was carried out with groups of at minimum 7 rats. All procedures in this study were performed in accordance with the Home Office Animals (Scientific Procedures) Act 1986 and accordingly with our Project License, after the experiment, animals were sacrificed by schedule 1 method.\nThe spontaneous locomotor activity of rats in a novel environment was monitored for 30 min in a 35×20 cm Perspex chamber. The cage was equipped with two series photocells located at 2 and 15 cm above the floor (San Diego Instruments, CA, USA). To measure drug-induced decrease locomotion such as morphine and gabapentin, at a pre-defined time post drug administration, each animal was placed in the centre of the cage. To measure drug-induced increase in locomotion such as phencyclidine (PCP) rats were placed in the cage at least 30 min before recording. total activity (ambulation and rearing) was monitored every 5 min for 30 min.\nIn the locomotor activity task, total counts are the sum of horizontal and vertical movements (photo beam breaks) in 30 minutes recording. For PCP vertical and horizontal activity are analysed separately. Data were expressed as the arithmetic mean ±SEM and analysed by ANOVA. In the beam walking test, the time to cross the beam (seconds) and the number of foot slips were expressed as mean ±SEM and analysed by ANOVA and Mann Whitney U test, respectively.",
  "data": [
    {"compound": "CN1CC[C@]23c4c5ccc(O)c4O[C@H]2[C@@H](O)C=C[C@H]3[C@H]1C5.O=S(=O)(O)O", "note": "[Morphine sulphate]", "values": [
      {"measurement": "reduction of exploratory behaviour with respect to controls activity", "setting": "3 mg/kg SC", "value": "up to 67%"},
      {"measurement": "reduction of movement vs spontaneous activity of vehicle-treated rats", "setting": "10 mg/kg SC", "value": "up to 93%"},
      {"measurement": "spontaneous activity, effect of dose", "setting": "1, 3 and 10 mg/kg SC, naive rats, p<0.01", "value": "dose dependent decrease"},
      {"measurement": "MED in locomotor activity test", "setting": "SC", "value": 3, "unit": "mg/kg"}
    ]}
  ]
}
